# Library screening results

Chains of the proteins cited; added tags and fusions are not shown.
UniProt E9BF75, entry or part of it: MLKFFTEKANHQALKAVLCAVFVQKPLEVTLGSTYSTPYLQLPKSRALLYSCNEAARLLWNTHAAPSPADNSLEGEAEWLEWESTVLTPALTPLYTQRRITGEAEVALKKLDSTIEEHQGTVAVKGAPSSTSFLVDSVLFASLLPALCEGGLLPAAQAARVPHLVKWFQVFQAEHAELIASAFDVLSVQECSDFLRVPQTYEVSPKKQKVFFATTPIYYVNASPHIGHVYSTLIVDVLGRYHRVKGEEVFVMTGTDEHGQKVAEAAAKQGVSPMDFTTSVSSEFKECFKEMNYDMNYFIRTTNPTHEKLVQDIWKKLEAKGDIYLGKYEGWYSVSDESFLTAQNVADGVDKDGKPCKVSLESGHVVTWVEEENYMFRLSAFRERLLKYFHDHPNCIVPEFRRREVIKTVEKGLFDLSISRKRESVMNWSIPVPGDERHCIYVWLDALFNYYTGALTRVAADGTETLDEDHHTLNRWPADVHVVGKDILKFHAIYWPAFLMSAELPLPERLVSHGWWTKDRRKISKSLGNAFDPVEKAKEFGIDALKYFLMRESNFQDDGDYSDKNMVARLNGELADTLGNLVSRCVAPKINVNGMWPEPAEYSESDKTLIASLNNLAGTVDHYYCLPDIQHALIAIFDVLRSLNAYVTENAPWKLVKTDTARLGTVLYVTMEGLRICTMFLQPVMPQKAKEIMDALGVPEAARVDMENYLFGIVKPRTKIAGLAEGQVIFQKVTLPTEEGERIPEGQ

From ChEMBL document CHEMBL3988442, “University of Dundee, Small-Polar-MMV Screening Library” (2021).

A: 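Assay on Mycobacterium tuberculosis, filed only as a heat shock assay from Cornell; the read-out is not stated. The concentration is filed as 10 mM, unlikely as a test dose, so the dose is not known. Direction is inferred from retests: higher values go with stronger inhibition. Of about 69,000 compounds tested this way, about 930 (1.4%) reached 50% or more in at least one test.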
B: 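Methionyl-tRNA synthetase (putative), Leishmania donovani (UniProt E9BF75). Primary screen of methionyl-tRNA synthetase; the read-out is not stated. The test concentration is not given. Values are per cent inhibition. About 68,000 compounds were tested under these conditions; 0.035% (about 24) showed 50% or more at least once.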
C: 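Whole-cell assay for inhibitors of Mycobacterium tuberculosis growth, labelled Cornell in the record; the read-out is not stated. The concentration is filed as 10 mM, unlikely as a test dose, so the dose is not known. The record gives no direction; compounds strong in two other growth screens of this library score well above the rest, so higher reads as stronger inhibition. About 53,000 compounds were tested under these conditions; 1.7% (about 900) showed 50% or more at least once.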

All values are in %. How 0% and 100% were set is not recorded. Most values in the screen are low, and negative values occur. Compounds were drawn at random from those tested, without regard to their results.

structure: Cc1ccc(NC2CCN(C(=O)c3ccsc3)CC2)nn1
A: 9.325%
B: 14.98%
C: -29.3%

structure: O=C(c1ccncc1)N1CCc2c(COCC3CC3)cncc2C1
A: 2.772%
B: 19.37%
C: 6.851%

structure: Cn1cc(CNCCNC(=O)Cc2ccccc2)c(-c2cccnc2)n1
A: -0.6899%
B: -3.621%

structure: CNC(=O)CN1CCN(C(=O)c2ccn(C)c(=O)c2)CC1
A: -20.44%
B: 0.2865%
C: -28.43%

structure: Cc1ccc(C(=O)NC2CCN(C(=O)NCc3ccccn3)CC2)o1
A: 8.142%
B: 20.99%

structure: CC(=O)N1CCCC(c2ccnc(Nc3cnccn3)n2)C1 (configuration not stated)
A: -1.758%
B: 3.955%
C: -12.61%

structure: Cc1nn(CC(=O)N2CCC(Nc3cccnn3)CC2)c(C)c1Cl
A: -13.44%
B: 8.163%

structure: COc1cccc(OC)c1CN1CC(=O)N(c2ccc(C)cc2)CC1C (configuration not stated)
A: 53.82%
B: 17.87%
C: 67.79%

structure: CC(C)CCN(c1cn[nH]c1)S(=O)(=O)c1cccc(C#N)c1
A: -26.96%
B: 3.297%
C: -25.41%

structure: O=C(NCCN1CCCCC1)c1nc(-c2cccc3[nH]ccc23)no1
A: -8.889%
B: 6.364%
C: -30.52%

structure: Cc1nc2sccn2c1C(=O)N1CCc2c(nc(N)[nH]c2=O)C1
A: 3.776%
B: 6.684%

structure: CNC(=O)c1cc2c(nc1NCC(C)C)CCN(CCOC)CC2.O=C(O)C(F)(F)F.O=C(O)C(F)(F)F
A: -12.19%
C: 15.75%

structure: Cl.O=C(OCC1CCCN1)c1cccc(NC(=O)c2ccco2)c1 (configuration not stated)
A: -157.4%

structure: CN(Cc1ccncn1)C(=O)CCC(=O)NC1CCCC1
A: -31.13%
B: 18.75%
C: 13.36%

structure: CC(C)Cc1nc(NC(=O)c2cccnc2)n[nH]1
A: 2.873%
B: 10.57%
C: 3.151%

structure: CC(=O)N1CCC2(CC1)CC(C(C)C)=NO2
A: -16%
B: 9.714%

structure: CCC(=O)N1CCC(NCc2cc(C(F)(F)F)ccc2Cl)C1 (configuration not stated)
A: -2.659%
B: 10.64%
C: 14.3%

structure: COC(=O)C1CCCCN1C(=O)c1cn(C/C=C/c2ccccc2)nn1 (configuration not stated)
A: -33.01%
B: -3.161%
C: -8.682%

structure: CCC(CC)NC(=O)NCc1ccnc(-n2ccnc2C)c1
A: 4.687%
B: 10.37%
C: 8.901%

structure: Cc1cccc(C(=O)N2CCCCC2c2nc3cc(F)ccc3[nH]2)n1 (configuration not stated)
A: -4.129%
B: 10.48%
C: 23.13%

structure: [H][C@]12CCN(C(=O)c3cnc(C)cn3)C[C@@]1([H])OCCN(c1ncccn1)C2
A: -5.451%
C: 7.67%

structure: [H][C@@]12CCCO[C@]1([H])[C@H](OCC(=O)N(C)C)CN2Cc1ccccc1
A: -32.16%
C: -37.49%

structure: Cc1nn2cccnc2c1C(=O)N1CCCC(n2cccn2)C1 (configuration not stated)
A: -11.81%
B: 10.84%

structure: O=C1O[C@@H]2CN(C3CCOCC3)C[C@@H]2N1CCc1cccc(Cl)c1
B: 10.61%

structure: O=C(O)Cn1ccc2c(Cl)cccc21
A: -5.644%
B: 5.744%
C: -10.92%

structure: CCOC(=O)CNC(=O)NCc1cccn1Cc1ccccc1C
A: -2.165%
B: 8.746%
C: 34.38%

structure: CCn1c(Cn2cncn2)nnc1C1CCN(Cc2cccnc2)CC1
A: -34.93%
B: -1.437%
C: -34.7%

structure: [H][C@]12CC[C@@]3(N=C(C)N(CC)C3=O)[C@@]1([H])CN(C(=O)NCC(C)C)C2
A: -6.528%
C: -13.41%

structure: Cc1nccc(CNC(=O)CCc2c(C)nc3cc(O)nn3c2C)n1
A: -10.44%
B: 7.123%
C: -32.86%

structure: Cc1ccccc1C(CNC(=O)CSc1nnc(N)s1)N(C)C (configuration not stated)
A: 0.769%
B: 8.681%
C: 6.304%

structure: CN1C[C@@H](C(=O)N(C)C)[C@@]2(CCc3ccccc3C(=O)N2)C1
B: 16.19%

structure: O=C(CC(F)(F)F)N1C[C@H]2CN(CC3CC3)C(=O)[C@H]2C1
B: 10.56%

structure: Cc1noc(-c2ccc(N3CCN(Cc4ncccc4C)CC3)nc2)n1
A: -11.68%
B: 14.63%
C: 47.98%

structure: O=C(O)C(F)(F)F.[H][C@@]12OCCN(C(=O)C3CCOCC3)[C@@]1([H])CC[C@H]2OCc1ccncc1
A: -23.42%
C: 26.14%

structure: Cn1c(N)nnc1SCC1OCCc2ccccc21 (configuration not stated)
A: -6.056%
B: 11.45%
C: -18.31%

structure: Nc1nc(CCCNC(=O)C2CCCN(Cc3ccco3)C2)cs1 (configuration not stated)
A: -43.53%
B: 8.38%
C: -1.839%

structure: CN(CCOCC1CC1)C(=O)Nc1ccc([S+](C)[O-])cc1 (configuration not stated)
A: 6.268%
B: 13.47%
C: -47.45%

The first 2 entries again:

| structure | A | B | C |
|---|---|---|---|
| `Cc1ccc(NC2CCN(C(=O)c3ccsc3)CC2)nn1` | 9.325% | 14.98% | -29.3% |
| `O=C(c1ccncc1)N1CCc2c(COCC3CC3)cncc2C1` | 2.772% | 19.37% | 6.851% |